The values below come from PubChem BioAssay.

One assay is described as follows: PubChem AID 1586. Conditions: yeast two-hybrid polyglutamine protein interaction, reporter readout; measured here: averaged growth delta OD.
A short description of assay [1]: enhancers of SMN2 over SMN1 splicing, cell-based, SMN2/SMN1 luciferase reporters (AID 1598). The note with it: SMN2 vs SMN1 luciferase splicing reporter cells, at 10 µM; SMN1 luciferase ratio: measured here: SMN1 luciferase reporter average; SMN2 luciferase ratio: measured here: SMN2 luciferase reporter average, stronger effect = higher value.
Assay [2] is described as follows: protection against mutant huntingtin cytotoxicity, PC12 cells, LDH release (AID 1610). Conditions: PC12 mutant huntingtin toxicity, final LDH at 4 uM, stronger effect = lower value. In general terms: LDH in the medium is a marker of cell lysis.

This is one part of the list. These are further read-outs of the screen, such as a control signal, another cell line or another target. No call is given for them. For part of these data: The list favours compounds with an active or inconclusive main result.

In the assay “PubChem AID 1586”, `NC(N)=NS(=O)(=O)c1ccc(N)cc1` returned a signal change (36 h minus 0 h) of 0.179. In assay [1], the SMN1 luciferase ratio turned out to be 0.96 and the SMN2 luciferase ratio was 0.81. Further, the normalised LDH release in assay [2] was 1.17.

Compound `O=S(=O)(O)CCS` gave a signal change (36 h minus 0 h) in the assay “PubChem AID 1586” of 0.119. Further, in assay [1], the SMN1 luciferase ratio was 0.91 and the SMN2 luciferase ratio was found to be 0.86. In assay [2], this compound had a normalised LDH release of 0.951.

For `Cc1nc2sccn2c(=O)c1CCN1CCC(=C(c2ccc(F)cc2)c2ccc(F)cc2)CC1`, the signal change (36 h minus 0 h) in the assay “PubChem AID 1586” is 0.0619. For the same compound, in assay [1], the SMN1 luciferase ratio stood at 0.85 and the SMN2 luciferase ratio was 0.86. Further, in assay [2], the normalised LDH release is 1.01.

In turn, `N.N.O=C(O)C1(C(=O)O)CCC1.[Pt]` showed a signal change (36 h minus 0 h) in “PubChem AID 1586” of 0.138. Further, in assay [1], the SMN1 luciferase ratio was 0.73 and the SMN2 luciferase ratio came out at 0.73. Moreover, in assay [2], the normalised LDH release came to 1.11.

In the assay “PubChem AID 1586”, `CO[C@@]1(NC(=O)CSCC#N)C(=O)N2C(C(=O)O)=C(CSc3nnnn3C)CSC21` (some centres undefined) came in with a signal change (36 h minus 0 h) of 0.171. In assay [1], the SMN1 luciferase ratio was 0.98 and the SMN2 luciferase ratio turned out to be 0.94. The same compound registered a normalised LDH release in assay [2] of 0.718.

On to `CN[C@@H]1C(O)[C@@H](O[C@@H]2[C@@H](O)[C@H](O[C@H]3OC(CN)=CC[C@H]3N)[C@@H](N)C[C@H]2N)OC[C@]1(C)O` (some centres undefined), for which, in the assay “PubChem AID 1586”, the signal change (36 h minus 0 h) worked out at 0.141. Further, in assay [1], the SMN1 luciferase ratio turned out to be 0.92 and the SMN2 luciferase ratio was determined as 0.86. For the same compound, the normalised LDH release in assay [2] stood at 0.322.

With `Cc1ccc(-c2cc(C(F)(F)F)nn2-c2ccc(S(N)(=O)=O)cc2)cc1`, the signal change (36 h minus 0 h) in the assay “PubChem AID 1586” was 0.133. Besides, in assay [1], the SMN1 luciferase ratio came out at 0.95 and the SMN2 luciferase ratio came out at 0.86. The same compound returned a normalised LDH release in assay [2] of 1.12.

The compound `COc1ccc(NS(=O)(=O)c2ccc(N)cc2)nn1` yielded a signal change (36 h minus 0 h) in “PubChem AID 1586” of 0.0631. In assay [1], the SMN1 luciferase ratio is 0.87 and the SMN2 luciferase ratio turned out to be 0.8. For the same compound, in assay [2], the normalised LDH release stood at 0.696.

`CC[N+](CC)(CC)CCOc1cccc(OCC[N+](CC)(CC)CC)c1OCC[N+](CC)(CC)CC` registered a signal change (36 h minus 0 h) in the assay “PubChem AID 1586” of 0.166. Also, in assay [1], the SMN1 luciferase ratio turned out to be 0.67 and the SMN2 luciferase ratio is 0.91. In assay [2], this compound gave a normalised LDH release of 0.953.

Compound `CC(=O)[C@H]1CCC2C3C[C@H](C)C4=CC(=O)CC[C@]4(C)C3[C@@H](O)C[C@@]21C` (some centres undefined) yielded a signal change (36 h minus 0 h) in the assay “PubChem AID 1586” of 0.0735. For the same compound, in assay [1], the SMN1 luciferase ratio turned out to be 0.67 and the SMN2 luciferase ratio is 0.63. For the same compound, the normalised LDH release in assay [2] worked out at 0.461.

As to `CN1CCN(CCCN2c3ccccc3Sc3ccc(Cl)cc32)CC1`, the signal change (36 h minus 0 h) in “PubChem AID 1586” is 0.159. For the same compound, in assay [1], the SMN1 luciferase ratio is 0.91 and the SMN2 luciferase ratio was 0.84. Moreover, the normalised LDH release in assay [2] turned out to be 0.677.

For the compound `C[n+]1ccccc1/C=N/O`, the signal change (36 h minus 0 h) in the assay “PubChem AID 1586” is 0.141. Moreover, in assay [1], the SMN1 luciferase ratio was determined as 0.89 and the SMN2 luciferase ratio came out at 0.96. For the same compound, the normalised LDH release in assay [2] was 0.795.

`CC(=O)C1CCC2C3CC=C4CC(OS(=O)(=O)O)CC[C@]4(C)C3CC[C@]12C` (some centres undefined): the signal change (36 h minus 0 h) in the assay “PubChem AID 1586” was found to be 0.0867. For the same compound, in assay [1], the SMN1 luciferase ratio was 0.95 and the SMN2 luciferase ratio came to 0.96. The normalised LDH release in assay [2] came out at 0.693.

For `C[C@H]1CC2C([C@@H](O)C[C@@]3(C)C2CC[C@]3(O)C(=O)CO)[C@@]2(C)C=CC(=O)C=C12` (some centres undefined), the signal change (36 h minus 0 h) in the assay “PubChem AID 1586” was 0.109. In assay [1], the SMN1 luciferase ratio was 1.02 and the SMN2 luciferase ratio came to 1.02. In assay [2], this compound returned a normalised LDH release of 0.705.

In the assay “PubChem AID 1586”, `Cc1c(OCC(F)(F)F)ccnc1CS(=O)c1nc2ccccc2[nH]1` (centres undefined) returned a signal change (36 h minus 0 h) of 0.0895. Further, in assay [1], the SMN1 luciferase ratio amounted to 1.5 and the SMN2 luciferase ratio stood at 1.13. The compound also came in with a normalised LDH release in assay [2] of 1.18.

On to `COc1cc(CNC(=O)CCCC/C=C/C(C)C)ccc1O`, for which the signal change (36 h minus 0 h) in the assay “PubChem AID 1586” was 0.096. In addition, in assay [1], the SMN1 luciferase ratio stood at 0.9 and the SMN2 luciferase ratio is 0.78. The compound further showed a normalised LDH release in assay [2] of 0.896.

Consider `CCN(CC)CCOC(=O)C(c1ccccc1)C1CCCCC1` (centres undefined), for which the signal change (36 h minus 0 h) in the assay “PubChem AID 1586” is 0.231. Besides, in assay [1], the SMN1 luciferase ratio turned out to be 0.96 and the SMN2 luciferase ratio was determined as 0.91. The compound further displayed a normalised LDH release in assay [2] of 1.14.

Regarding `CS(=O)(=O)c1ccc([C@@H](O)[C@@H](CO)NC(=O)C(Cl)Cl)cc1`, in the assay “PubChem AID 1586”, the signal change (36 h minus 0 h) stood at 0.547. Further, in assay [1], the SMN1 luciferase ratio stood at 0.86 and the SMN2 luciferase ratio stood at 0.7. The compound further gave a normalised LDH release in assay [2] of 0.715.

On to `NC1=NCCN1CC(=O)O`, for which, in the assay “PubChem AID 1586”, the signal change (36 h minus 0 h) amounted to 0.137. In assay [1], the SMN1 luciferase ratio was found to be 0.83 and the SMN2 luciferase ratio worked out at 0.89. Moreover, the normalised LDH release in assay [2] was found to be 0.732.

The compound `O=C1N=C(O)CN1/N=C/c1ccc(-c2ccc([N+](=O)[O-])cc2)o1` registered a signal change (36 h minus 0 h) in “PubChem AID 1586” of 0.107. Further, in assay [1], the SMN1 luciferase ratio amounted to 0.92 and the SMN2 luciferase ratio is 1.02. In assay [2], this compound gave a normalised LDH release of 0.927.

Take `c1ccc(CN(CC2=NCCN2)c2ccccc2)cc1`: in “PubChem AID 1586”, the signal change (36 h minus 0 h) was found to be 0.156. Also, in assay [1], the SMN1 luciferase ratio is 0.85 and the SMN2 luciferase ratio was 0.8. The compound also showed a normalised LDH release in assay [2] of 1.04.

As to `CN1CCC[C@@H]1CCO[C@](C)(c1ccccc1)c1ccc(Cl)cc1`, in “PubChem AID 1586”, the signal change (36 h minus 0 h) was found to be 0.107. In addition, in assay [1], the SMN1 luciferase ratio was found to be 1.1 and the SMN2 luciferase ratio came to 0.9. Moreover, the normalised LDH release in assay [2] was 1.08.

`NC[C@H]1O[C@H](O[C@H]2C(O[C@@H]3O[C@H](CO)[C@@H](O)[C@H]3O)[C@@H](O)[C@H](N)C[C@@H]2N)[C@H](N)[C@@H](O)[C@@H]1O` (some centres undefined) came in with a signal change (36 h minus 0 h) in the assay “PubChem AID 1586” of 0.036. In addition, in assay [1], the SMN1 luciferase ratio turned out to be 0.92 and the SMN2 luciferase ratio worked out at 0.84. For the same compound, the normalised LDH release in assay [2] amounted to 1.26.

Take `O=c1cc[nH]c(=S)[nH]1`: the signal change (36 h minus 0 h) in “PubChem AID 1586” was 0.0665. Besides, in assay [1], the SMN1 luciferase ratio amounted to 0.86 and the SMN2 luciferase ratio turned out to be 0.97. Moreover, the normalised LDH release in assay [2] came to 0.949.

On to `CC(CN(C)C)CN1c2ccccc2Sc2ccccc21` (centres undefined), for which the signal change (36 h minus 0 h) in “PubChem AID 1586” turned out to be 0.161. For the same compound, in assay [1], the SMN1 luciferase ratio worked out at 0.86 and the SMN2 luciferase ratio was determined as 0.84. In addition, in assay [2], the normalised LDH release is 0.637.

`COc1ccc2c(c1OC)C(=O)O[C@H]2[C@@H]1c2ccccc2CCN1C` registered a signal change (36 h minus 0 h) in the assay “PubChem AID 1586” of 0.187. Also, in assay [1], the SMN1 luciferase ratio amounted to 0.84 and the SMN2 luciferase ratio turned out to be 0.87. In assay [2], this compound gave a normalised LDH release of 0.941.

In turn, `Nc1nccs1` returned a signal change (36 h minus 0 h) in “PubChem AID 1586” of 0.167. For the same compound, in assay [1], the SMN1 luciferase ratio turned out to be 0.79 and the SMN2 luciferase ratio came out at 0.94. Further, the normalised LDH release in assay [2] was 1.21.

The compound `Cn1cnc2c1c(=O)[nH]c(=O)n2C` came in with a signal change (36 h minus 0 h) in “PubChem AID 1586” of 0.00285. In assay [1], the SMN1 luciferase ratio turned out to be 0.89 and the SMN2 luciferase ratio came to 0.91. The compound further showed a normalised LDH release in assay [2] of 0.741.

In turn, `CCn1cc(C(=O)O)c(=O)c2cnc(N3CCCC3)nc21` came in with a signal change (36 h minus 0 h) in “PubChem AID 1586” of 0.0988. Besides, in assay [1], the SMN1 luciferase ratio turned out to be 0.88 and the SMN2 luciferase ratio amounted to 0.86. The normalised LDH release in assay [2] came to 1.11.

In the assay “PubChem AID 1586”, `CC(C)CC1NC(=O)CNC1=O` (centres undefined) registered a signal change (36 h minus 0 h) of 0.146. In addition, in assay [1], the SMN1 luciferase ratio was 0.94 and the SMN2 luciferase ratio stood at 0.99. The compound also yielded a normalised LDH release in assay [2] of 0.955.

Regarding `NCCCCCC(=O)O`, the signal change (36 h minus 0 h) in the assay “PubChem AID 1586” is 0.204. In assay [1], the SMN1 luciferase ratio came to 0.78 and the SMN2 luciferase ratio stood at 0.78. Further, the normalised LDH release in assay [2] came out at 0.768.

In the assay “PubChem AID 1586”, `C[N+](C)(C)CCO` came in with a signal change (36 h minus 0 h) of 0.0853. Besides, in assay [1], the SMN1 luciferase ratio came out at 0.86 and the SMN2 luciferase ratio was 0.93. The normalised LDH release in assay [2] was 0.795.

Compound `Fc1ccc(C(c2ccc(F)cc2)N2CCN(C/C=C/c3ccccc3)CC2)cc1` yielded a signal change (36 h minus 0 h) in the assay “PubChem AID 1586” of 0.174. Also, in assay [1], the SMN1 luciferase ratio was 0.76 and the SMN2 luciferase ratio is 0.84. Also, the normalised LDH release in assay [2] was 0.666.

In turn, `CC(=O)[C@H]1CCC2C3CCC4=CC(=O)CC[C@]4(C)C3CC[C@@]21C` (some centres undefined) displayed a signal change (36 h minus 0 h) in “PubChem AID 1586” of 0.0717. Moreover, in assay [1], the SMN1 luciferase ratio turned out to be 0.89 and the SMN2 luciferase ratio was 0.85. Moreover, the normalised LDH release in assay [2] stood at 0.278.

For `Cn1c(=O)c2c(ncn2C)n(C)c1=O`, the signal change (36 h minus 0 h) in the assay “PubChem AID 1586” amounted to 0.123. For the same compound, in assay [1], the SMN1 luciferase ratio amounted to 0.99 and the SMN2 luciferase ratio came to 0.97. In assay [2], this compound showed a normalised LDH release of 0.752.

On to `Cc1c(NC(C)C)c(=O)n(-c2ccccc2)n1C`, for which, in “PubChem AID 1586”, the signal change (36 h minus 0 h) is 0.0945. In assay [1], the SMN1 luciferase ratio amounted to 0.88 and the SMN2 luciferase ratio was 0.86. The compound further showed a normalised LDH release in assay [2] of 0.783.
